In the supplement of paper PMC11150407:
About 180 (8.6%) of roughly 2,100 compounds showed an effect of 50% or more. This is one part of the list.

tested on: MOLM1 and UCSD/AML1 (averaged); assay: cell viability relative to DMSO control (POC); higher = less growth inhibition; settings: 1 µM; 72 h
Procedure: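 Primary viability screen in the 3q26 EVI1-high AML cell lines MOLM1 and UCSD/AML1 (1.5e3 cells/well, 384-well), compounds at 1 uM for 72 h. ATP CellTiter-Glo read-out given as percent of viable cells over DMSO control (POC), averaged over duplicates. DMSO was the negative control and 5 uM etoposide the positive control. This mapping covers the MicroSource Spectrum and Selleck anticancer libraries (drug names).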

| Compound | cell viability [%] |
| --- | --- |
| O=C(CCCCC(=O)Nc1c(I)cc(I)c(C(=O)O)c1I)Nc1c(I)cc(I)c(C(=O)O)c1I | 95.1 |
| N[C@@H](CC(=O)N1CCn2c(nnc2C(F)(F)F)C1)Cc1cc(F)c(F)cc1F | 94.7 |
| COc1cc2c(cc1OC)Cc1cc(OC)c(OC)cc1Cc1cc(OC)c(OC)cc1C2 | 113 |
| C[C@@H]1O[C@@H](O[C@H]2[C@H](Oc3cc(O)c4c(c3)O[C@H](c3ccc(O)cc3)CC4=O)O[C@H](CO)[C@@H](O)[C@@H]2O)[C@H](O)[C@H](O)[C@H]1O | 97.8 |
| CC(=O)OCC(=O)[C@@]12OC3(CCCC3)O[C@@H]1C[C@H]1[C@@H]3CCC4=CC(=O)C=C[C@]4(C)[C@@]3(F)[C@@H](O)C[C@@]12C | 75.1 |
| CCCC(=O)Nc1ccc(OCC(O)CNC(C)C)c(C(C)=O)c1 (stereo not given) | 98.8 |
| C[C@@H]1O[C@@H](OC[C@H]2O[C@@H](Oc3c(-c4ccc(O)c(O)c4)oc4cc(O)cc(O)c4c3=O)[C@H](O)[C@@H](O)[C@@H]2O)[C@H](O)[C@H](O)[C@H]1O [RUTOSIDE  (rutin)] | 99 |
| CN1[C@@H]2CC[C@H]1C[C@@H](OC(c1ccccc1)c1ccccc1)C2 | 101 |
| CC(=O)Nc1ccc(OCC(O)CNC(C)C)cc1 (stereo not given) | 99 |
| O=C(Nc1ccccc1)OCC(CN1CCCCC1)OC(=O)Nc1ccccc1 (stereo not given) | 90.9 |
| COc1c(O)cc(O)cc1O | 98.8 |
| NC(=O)Nc1sc(-c2ccc(F)cc2)cc1C(N)=O | 42.3 |
| COC(=O)c1c(C)c2c(c(C)c1O)OC(=O)c1c(C)c(Cl)c(O)c(Cl)c1O2 | 108 |
| Cc1ccc(C)c(OCCCC(C)(C)C(=O)O)c1 | 100 |
| O=C(CCCN1CCC(O)(c2ccc(Cl)cc2)CC1)c1ccc(F)cc1 | 102 |
| COc1cc2c(cc1OC)[C@@H]1Cc3ccc(OC)c(OC)c3CN1CC2 | 108 |
| NCCC(=O)c1ccccc1N | 103 |
| NC(=O)c1ccc[n+]([C@@H]2O[C@H](COP(=O)([O-])OP(=O)(O)OC[C@H]3O[C@@H](n4cnc5c(N)ncnc54)[C@H](O)[C@@H]3O)[C@@H](O)[C@H]2O)c1 | 81.6 |
| NCC(=O)CCC(=O)O | 110 |
| CN1CCC(CNc2ccc3ncc(-c4cccc(OC(F)(F)F)c4)n3n2)CC1 [SGI-1776 free base] | 80 |
| COc1c2ccoc2cc2oc(C)cc(=O)c12 | 104 |
| COc1ccc(CN(CCN(C)C)c2ncccn2)cc1 | 98.8 |
| NCCS | 89.6 |
| COCCOC(=O)C1=C(C)NC(C)=C(C(=O)OC(C)C)C1c1cccc([N+](=O)[O-])c1 (stereo not given) | 97.7 |
| CN1C(C(=O)Nc2ccccn2)=C(O)c2ccccc2S1(=O)=O | 98.7 |

Part of the list above, tab-delimited.
Compound	cell viability [%]
Cc1ccc(C)c(OCCCC(C)(C)C(=O)O)c1	100
O=C(CCCN1CCC(O)(c2ccc(Cl)cc2)CC1)c1ccc(F)cc1	102
